# Experimental data taken from the supplement of paper PMC8728848.
# The other results are listed elsewhere or left out.
# B1: Epa11 (Candida glabrata) (protein)
# chain: MGSSHHHHHHSSGLVPRGSHMASSNAPNYPVGCSPSVGTQLTPGLSLEVYAYPMDGNNGYCWNATYKDPEFPRSGYLKNKLLGKADGVVGPLNFLAKNKDCSPKVDTLPAGFNFPQPITVTNFTMVLFGYLAPKQSGKYTFKLLADDLLLLNLGATNAFDCCNREATKNNLGEFLAYNLWPNQDKNVTVYLEKGVYYPLRLFFNNRDGGSQLDFSYYFNDSPAPLTDFSGMFFSVPDGAECPARI
# Key:
# Experiment in all cases: glycan array binding signal (z-score within array); higher = stronger binding
# Conditions in all cases: glycan notation: IUPAC condensed, linker removed
# [1] = biological target: Gal3S(b1-3)[Fuc(a1-4)]GlcNAc
# Method in brief: (§1)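 The binding signal is a Z-score computed within each array. Data were drawn from 3228 arrays in the Consortium for Functional Glycomics database, restricted to those with a known protein sequence. Scores were averaged over arrays of the same protein sequence at different concentrations or buffers, and over linkers, and negative values can be taken as non-binding.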
# [2] = biological target: Gal3S(b1-4)Glc
# Method in brief: as §1
# [3] = biological target: Gal3S(b1-4)Glc6S
# Method in brief: as §1
# [4] = biological target: Gal3S(b1-4)GlcNAc
# Method in brief: as §1
# [5] = biological target: Gal3S(b1-4)[Fuc(a1-3)]Glc6S
# Method in brief: as §1
# [6] = biological target: Gal3S(b1-4)[Fuc(a1-3)]GlcNAc
# Method in brief: as §1
# [7] = biological target: Gal3S(b1-4)[Fuc(a1-3)]GlcNAc6S
# Method in brief: as §1
# [8] = biological target: Gal3S4S(b1-4)GlcNAc
# Method in brief: as §1
# [9] = biological target: Gal3S6S(b1-4)GlcNAc
# Method in brief: as §1
# [10] = biological target: Gal3S6S(b1-4)GlcNAc6S
# Method in brief: as §1
# [11] = biological target: Gal4S(b1-4)GlcNAc
# Method in brief: as §1
# [12] = biological target: Gal4S6S(b1-4)GlcNAc
# Method in brief: as §1
# [13] = biological target: Gal6P(b1-4)GlcNAc
# Method in brief: as §1
# [14] = biological target: Gal6S(b1-3)GlcNAc
# Method in brief: as §1
# [15] = biological target: Gal6S(b1-3)GlcNAc6S
# Method in brief: as §1
# [16] = biological target: Gal6S(b1-4)Glc
# Method in brief: as §1
# [17] = biological target: Gal6S(b1-4)Glc6S
# Method in brief: as §1
# [18] = biological target: Gal6S(b1-4)GlcNAc
# Method in brief: as §1
# [19] = biological target: Gal6S(b1-4)GlcNAc6S
# Method in brief: as §1
# [20] = biological target: GalNAc(a1-3)Gal
# Method in brief: as §1
# [21] = biological target: GalNAc(a1-3)GalNAc
# Method in brief: as §1
# [22] = biological target: GalNAc(a1-3)GalNAc(b1-3)Gal(a1-4)Gal(b1-4)Glc
# Method in brief: as §1
# [23] = biological target: GalNAc(a1-3)GalNAc(b1-3)Gal(a1-4)Gal(b1-4)GlcNAc
# Method in brief: as §1
# [24] = biological target: GalNAc(b1-3)Gal
# Method in brief: as §1
# [25] = biological target: GalNAc(b1-3)Gal(a1-4)Gal(b1-4)GlcNAc
# Method in brief: as §1
# [26] = biological target: GalNAc(b1-3)Gal(a1-4)Gal(b1-4)GlcNAc(b1-3)Gal(b1-4)Glc
# Method in brief: as §1
# [27] = biological target: GalNAc(b1-3)Gal(a1-6)Gal(b1-4)Glc
# Method in brief: as §1
# [28] = biological target: GalNAc(b1-3)GalNAc
# Method in brief: as §1
# [29] = biological target: GalNAc(b1-3)GlcNAc
# Method in brief: as §1
# [30] = biological target: GalNAc(b1-4)Gal(b1-4)Glc
# Method in brief: as §1
# [31] = biological target: GalNAc(b1-4)GlcNAc
# Method in brief: as §1
# [32] = biological target: GalNAc(b1-4)GlcNAc(b1-2)Man
# Method in brief: as §1
# [33] = biological target: GalNAc(b1-4)GlcNAc(b1-2)Man(a1-3)[GalNAc(b1-4)GlcNAc(b1-2)Man(a1-6)]Man(b1-4)GlcNAc(b1-4)GlcNAc
# Method in brief: as §1
# [34] = biological target: GalNAc(b1-4)GlcNAc(b1-3)GalNAc(b1-4)GlcNAc
# Method in brief: as §1
# [35] = biological target: GalNAc(b1-4)GlcNAc6S
# Method in brief: as §1
# [36] = biological target: GalNAc(b1-6)GalNAc
# Method in brief: as §1
# [37] = biological target: GalNAc3S(b1-4)GlcNAc
# Method in brief: as §1
binder,measurement,setting,value
B1,glycan array binding signal (z-score),[1],0.441
same,glycan array binding signal (z-score),[2],0.163
same,glycan array binding signal (z-score),[3],0.304
same,glycan array binding signal (z-score),[4],-2.05
same,glycan array binding signal (z-score),[5],1.71
same,glycan array binding signal (z-score),[6],0.202
same,glycan array binding signal (z-score),[7],0.25
same,glycan array binding signal (z-score),[8],-0.9
same,glycan array binding signal (z-score),[9],-0.411
same,glycan array binding signal (z-score),[10],0.06
same,glycan array binding signal (z-score),[11],-0.88
same,glycan array binding signal (z-score),[12],-0.328
same,glycan array binding signal (z-score),[13],-0.084
same,glycan array binding signal (z-score),[14],-0.641
same,glycan array binding signal (z-score),[15],0.708
same,glycan array binding signal (z-score),[16],-0.216
same,glycan array binding signal (z-score),[17],0.047
same,glycan array binding signal (z-score),[18],-0.425
same,glycan array binding signal (z-score),[19],0.404
same,glycan array binding signal (z-score),[20],-0.428
same,glycan array binding signal (z-score),[21],-0.598
same,glycan array binding signal (z-score),[22],-0.437
same,glycan array binding signal (z-score),[23],-0.099
same,glycan array binding signal (z-score),[24],-0.563
same,glycan array binding signal (z-score),[25],-0.222
same,glycan array binding signal (z-score),[26],-0.094
same,glycan array binding signal (z-score),[27],-0.117
same,glycan array binding signal (z-score),[28],-0.599
same,glycan array binding signal (z-score),[29],-0.632
same,glycan array binding signal (z-score),[30],1.32
same,glycan array binding signal (z-score),[31],0.706
same,glycan array binding signal (z-score),[32],-0.849
same,glycan array binding signal (z-score),[33],-0.233
same,glycan array binding signal (z-score),[34],0.195
same,glycan array binding signal (z-score),[35],-0.013
same,glycan array binding signal (z-score),[36],-0.649
same,glycan array binding signal (z-score),[37],-0.07

# Two entries from above, bar-delimited:
binder | measurement | setting | value
B1 | glycan array binding signal (z-score) | [6] | 0.202
same | glycan array binding signal (z-score) | [7] | 0.25
